# Laboratory results reported in PubChem BioAssay AID248 (DTP/NCI, 2004).
# The list shows only some results of the screen, not a fair sample: its compounds were picked by chemical class. Not every dose and run of a compound is shown. T/C: endpoint of the treated group in % of that of the vehicle group. Some entries give survivors of the animals treated and no T/C: the source holds a T/C of zero for them, seemingly a mark for toxic or unscored doses. Some doses without a T/C left all or most animals alive at the check, yet need not have been tolerated: survival well below the control is almost never listed, so the zero probably covers shortened survival too. Survivors were counted at the toxicity check, usually on the fifth day, unless a day is given; later deaths do not show. Schedules are NCI's codes, read here as Q, the interval in days (D) or hours (H), X, the number of doses. Some entries were tested several times; their values stand side by side, smallest first. Some complexes appear as separate parts, the way the source draws them; their charges need not add up. Where survival is the endpoint, this PubChem deposit counts one and a half times the control or more as active, and values a quarter to a half above the control carry no call in these data; other NCI protocols may use other cut-offs. Some schedule codes hold Z or #, which are not explained here. Some T/C values are marked as having no survivor count here; that says nothing about deaths at the dose. Some T/C values carry the count of animals alive at the toxicity check (mostly the fifth day); where neither a count nor a note follows, no animal had died by that day.
# System: L1210 leukemia ip in BDF1 mice, survival T/C
# Assay: NCI In Vivo Anticancer Drug Screen. Data for tumor model L1210 Leukemia (intraperitoneal) in B6D2F1 (BDF1) mice
# Settings: T/C endpoint: mean survival time, higher T/C = longer survival
# [1] = dose: 25.0 mg/kg/injection, schedule: Q04DX003 (ip), vehicle: Klucel (hydroxypropylcellulose) (HPC)
# [2] = dose: 50.0 mg/kg/injection, schedule: Q01DX009 (ip), vehicle: Klucel (hydroxypropylcellulose) (HPC)
# [3] = dose: 50.0 mg/kg/injection, schedule: Q04DX003 (ip), vehicle: Klucel (hydroxypropylcellulose) (HPC)
# [4] = dose: 100.0 mg/kg/injection, schedule: Q01DX009 (ip), vehicle: Klucel (hydroxypropylcellulose) (HPC)
# [5] = dose: 100.0 mg/kg/injection, schedule: Q04DX003 (ip), vehicle: Klucel (hydroxypropylcellulose) (HPC)
# [6] = dose: 100.0 mg/kg/injection, schedule: Q01DX001 (ip), vehicle: saline
# [7] = dose: 200.0 mg/kg/injection, schedule: Q01DX001 (ip), vehicle: saline
# [8] = dose: 400.0 mg/kg/injection, schedule: Q01DX001 (ip), vehicle: saline
# [9] = dose: 200.0 mg/kg/injection, schedule: Q04DX003 (ip), vehicle: Klucel (hydroxypropylcellulose) (HPC)
# [10] = dose: 400.0 mg/kg/injection, schedule: Q04DX003 (ip), vehicle: Klucel (hydroxypropylcellulose) (HPC)
# [11] = dose: 100.0 mg/kg/injection, schedule: Q01DX001 (ip), vehicle: carboxymethylcellulose (CMC)
# [12] = dose: 200.0 mg/kg/injection, schedule: Q01DX001 (ip), vehicle: carboxymethylcellulose (CMC)
# [13] = dose: 400.0 mg/kg/injection, schedule: Q01DX001 (ip), vehicle: carboxymethylcellulose (CMC)
# [14] = dose: 50.0 mg/kg/injection, schedule: Q01DX009 (ip), vehicle: saline with Tween-80
smiles,measurement,setting,value
CCCc1c(CC)c(=O)[nH]c2ccccc12,T/C,"dose: 100.0 mg/kg/injection, schedule: Q01DX001 (ip), vehicle: other",101 % of control [survivor count not shown]
same,T/C,"dose: 200.0 mg/kg/injection, schedule: Q01DX001 (ip), vehicle: other",106 % of control [survivor count not shown]
same,T/C,"dose: 400.0 mg/kg/injection, schedule: Q01DX001 (ip), vehicle: other",104 % of control [survivor count not shown]
CC#CC(O)(C(=O)OC1CCN(CCCC(=O)c2ccccc2)CC1)c1ccccc1 (configuration not stated),T/C,"dose: 25.0 mg/kg/injection, schedule: Q01DX009 (ip), vehicle: Klucel (hydroxypropylcellulose) (HPC)",107 % of control
same,T/C,[1],95 % of control
same,T/C,[2],100 % of control
same,T/C,[3],98 % of control
same,T/C,[4],107 % of control
same,T/C,[5],104 % of control
COP(OC)N1CC1,survivor count,[6],3 of 6
same,survivor count,[7],0 of 6
same,survivor count,[8],0 of 6
CCOC(=O)NP(=O)(NC(=O)NOC)NC(=O)OCC,T/C,[6],100 % of control
same,T/C,[7],97 % of control
same,T/C,[8],103 % of control
C=CCC[P+](CC)(c1ccccc1)c1ccccc1.F[P-](F)(F)(F)(F)F,T/C,"dose: 0.78 mg/kg/injection, schedule: Q04DX003 (ip), vehicle: Klucel (hydroxypropylcellulose) (HPC)",93 % of control
same,T/C,"dose: 1.56 mg/kg/injection, schedule: Q04DX003 (ip), vehicle: Klucel (hydroxypropylcellulose) (HPC)",109 % of control
same,T/C,"dose: 3.12 mg/kg/injection, schedule: Q04DX003 (ip), vehicle: Klucel (hydroxypropylcellulose) (HPC)",94 and 106 % of control
same,survivor count,"dose: 6.25 mg/kg/injection, schedule: Q04DX003 (ip), vehicle: Klucel (hydroxypropylcellulose) (HPC)",4 of 6
same,survivor count,"dose: 12.5 mg/kg/injection, schedule: Q04DX003 (ip), vehicle: Klucel (hydroxypropylcellulose) (HPC)",1 of 6
same,survivor count,[1],0 of 6
same,survivor count,[3],0 of 6 and 1 of 6
same,survivor count,[5],0 of 6
same,survivor count,[9],0 of 6
same,survivor count,[10],0 of 6
CC(C)(CO)N=Cc1ccc(N(CCCl)CCCl)cc1,T/C,[11],107 % of control
same,T/C,[12],104 % of control
same,survivor count,[13],2 of 4
CO[PH+](OC)c1ccccc1.[C-]#[O+].[C-]#[O+].[C-]#[O+].[C-]#[O+].[C-]#[O+].[W],T/C,"dose: 50.0 mg/kg/injection, schedule: Q04DX002 (ip), vehicle: gum acacia",94 % of control
same,T/C,"dose: 100.0 mg/kg/injection, schedule: Q04DX002 (ip), vehicle: gum acacia",105 % of control
same,T/C,"dose: 200.0 mg/kg/injection, schedule: Q04DX002 (ip), vehicle: gum acacia",91 % of control
OOC1(OOC2(OO)CCCCC2)CCCCC1,T/C,[14],96 % of control [survivor count not shown]
COc1n[nH]c(N=[N+]=[N-])n1,T/C,"dose: 100.0 mg/kg/injection, schedule: Q04DX002 (ip), vehicle: saline with Tween-80",104 % of control
same,T/C,"dose: 200.0 mg/kg/injection, schedule: Q04DX002 (ip), vehicle: saline with Tween-80",101 % of control
same,T/C,"dose: 400.0 mg/kg/injection, schedule: Q04DX002 (ip), vehicle: saline with Tween-80",93 % of control
CCCC1OP(N)(=O)OCC1CC (configuration not stated),T/C,"dose: 200.0 mg/kg/injection, schedule: Q01DX Z (ip), vehicle: saline",97 % of control
same,T/C,"dose: 300.0 mg/kg/injection, schedule: Q01DX Z (ip), vehicle: saline",100 % of control
same,T/C,"dose: 450.0 mg/kg/injection, schedule: Q01DX Z (ip), vehicle: saline",111 % of control
same,T/C,"dose: 675.0 mg/kg/injection, schedule: Q01DX Z (ip), vehicle: saline",96 % of control
NP(=O)(OCCCO)N(CCCl)CCCl (configuration not stated),T/C,"dose: 125.0 mg/kg/injection, schedule: Q01DX001 (ip), vehicle: saline",91 % of control
same,T/C,"dose: 150.0 mg/kg/injection, schedule: Q01DX001 (ip), vehicle: saline",102 % of control
same,T/C,"dose: 250.0 mg/kg/injection, schedule: Q01DX001 (ip), vehicle: saline",96 % of control
same,T/C,"dose: 300.0 mg/kg/injection, schedule: Q01DX001 (ip), vehicle: saline",113 % of control
same,T/C,"dose: 500.0 mg/kg/injection, schedule: Q01DX001 (ip), vehicle: saline",103 % of control
same,T/C,"dose: 1000.0 mg/kg/injection, schedule: Q01DX001 (ip), vehicle: saline",94 % of control
CCN(CCNCCCNCCSP(=O)(O)O)c1cccc(C)c1,T/C,"dose: 100.0 mg/kg/injection, schedule: Q04DX003 (ip), vehicle: saline with Tween-80",96 % of control
same,survivor count,"dose: 200.0 mg/kg/injection, schedule: Q04DX003 (ip), vehicle: saline with Tween-80",0 of 6
same,survivor count,"dose: 400.0 mg/kg/injection, schedule: Q04DX003 (ip), vehicle: saline with Tween-80",0 of 6
CC[C@@H](C)[C@@H]1NC(=O)/C(=C(\C)O)C1=O.c1ccc(CNCCNCc2ccccc2)cc1,T/C,"dose: 5.0 mg/kg/injection, schedule: Q01DX Z (ip), vehicle: carboxymethylcellulose (CMC)",102 % of control
same,T/C,"dose: 10.0 mg/kg/injection, schedule: Q01DX Z (ip), vehicle: carboxymethylcellulose (CMC)",100 % of control
same,T/C,"dose: 20.0 mg/kg/injection, schedule: Q01DX Z (ip), vehicle: carboxymethylcellulose (CMC)",107 % of control
same,T/C,"dose: 40.0 mg/kg/injection, schedule: Q01DX Z (ip), vehicle: carboxymethylcellulose (CMC)",98 and 109 % of control
same,T/C,"dose: 80.0 mg/kg/injection, schedule: Q01DX Z (ip), vehicle: carboxymethylcellulose (CMC)",95 % of control
same,T/C,"dose: 160.0 mg/kg/injection, schedule: Q01DX Z (ip), vehicle: carboxymethylcellulose (CMC)",106 % of control
same,survivor count,"dose: 320.0 mg/kg/injection, schedule: Q01DX015 (ip), vehicle: carboxymethylcellulose (CMC)",0 of 6
same,survivor count,"dose: 640.0 mg/kg/injection, schedule: Q01DX015 (ip), vehicle: carboxymethylcellulose (CMC)",0 of 6
C1C[N-]1.C1C[N-]1.C1C[N-]1.[Cl][Rh]([Cl])[Cl],T/C,[2],108 % of control
same,T/C,[4],105 % of control
same,T/C,[5],114 % of control [5 of 6 alive]
same,T/C,"dose: 200.0 mg/kg/injection, schedule: Q01DX009 (ip), vehicle: Klucel (hydroxypropylcellulose) (HPC)",103 % of control [5 of 6 alive]
same,T/C,[9],113 % of control
same,survivor count,[10],2 of 6
Cc1nn(-c2ccc([N+](=O)[O-])cc2[N+](=O)[O-])nc1[N+](=O)[O-],T/C,"dose: 75.0 mg/kg/injection, schedule: Q01DX001 (ip), vehicle: other",96 % of control
same,T/C,"dose: 150.0 mg/kg/injection, schedule: Q01DX001 (ip), vehicle: other",107 % of control
same,T/C,"dose: 300.0 mg/kg/injection, schedule: Q01DX001 (ip), vehicle: other",113 % of control
CCOP(=O)(NC(=S)Nc1ccccc1NC(=S)NP(=O)(OCC)OCC)OCC,survivor count,"dose: 12.5 mg/kg/injection, schedule: Q01DX009 (ip), vehicle: saline with Tween-80",1 of 3
same,survivor count,"dose: 25.0 mg/kg/injection, schedule: Q01DX009 (ip), vehicle: saline with Tween-80",0 of 3
same,survivor count,[14],0 of 3
same,T/C,"dose: 50.0 mg/kg/injection, schedule: Q01DX009 (ip), vehicle: saline",91 % of control
same,survivor count,"dose: 100.0 mg/kg/injection, schedule: Q01DX009 (ip), vehicle: saline",1 of 3
same,survivor count,"dose: 200.0 mg/kg/injection, schedule: Q01DX009 (ip), vehicle: saline",0 of 3
N#CCCN(CN(CN(CCC#N)[N+](=O)[O-])CN(CCC#N)[N+](=O)[O-])[N+](=O)[O-],T/C,[11],93 % of control [survivor count not shown]
same,T/C,[5],102 % of control [survivor count not shown]
same,T/C,[12],102 % of control [survivor count not shown]
same,T/C,[9],105 % of control [survivor count not shown]
same,T/C,[13],100 % of control [survivor count not shown]
same,T/C,[10],103 % of control [survivor count not shown]
